According to patent US20090004166A1, “Carrier For Enternal Administration” (priority 2004, published 2009):

Test system: Sprague-Dawley rats
Settings: oral gavage, 5 mg/kg

Structure (SMILES): CN1CC[C@]23c4c5ccc(O)c4O[C@H]2[C@@H](O)C=C[C@H]3[C@H]1C5.O=S(=O)(O)O [morphine sulphate]
- duration of analgesic effect following oral administration: first hour
